From PubChem BioAssay AID2685 (National Center for Advancing Translational Sciences (NCATS), 2010) come the findings set out here.

This assay in a line: qHTS Assay for Lipid Storage Modulators in Drosophila S3 Cells.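 As to cell number change: cells counted by Cell Tracker Red CMTPX staining in the red channel.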 The note with it: BODIPY lipid droplet fluorescence, 18-24 h; for cell number change: measured here: cell count max response, cells fed with added oleic acid. Summed up:
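Drosophila S3 cells got compounds at several concentrations plus oleic acid (400 uM solution). Laser-scanning cytometry with 488 nm excitation read lipid droplets at 500-530 nm and cells at 575-640 nm. Percent activity was relative to 20 uM Triacsin C.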
On the technique in general: qHTS replaces the single test concentration by a dilution series.

[1] abbreviates: measured here: lipid fluorescence (Fed channel) AC50, cells fed with added oleic acid.
Where [2] appears, read: measured here: cell number channel AC50, cells fed with added oleic acid.

Usually AC50 stands for the concentration giving half of the maximal activity seen.

The structures appear in SMILES notation. The list shows a part of the results. Shown are side measurements of this screen, not its main read-out; they come without a call. Compounds called inactive in the main read-out are mostly missing here. Potencies come from curve fits of mixed quality, noted in brackets.

For the compound `COCCNC(=O)COc1ccc(C)cc1C(=O)c1cc(C#N)c(=O)n(C2CC2)c1`, the cell number change is -11.1%.

Turning to `Cn1c2ccccc2c(=O)c2ccc(C#CC3(O)CCCCC3)cc21`, the cell number change is -12.3%. Besides, under setting [1], the AC50 was 29.1 µM [falling, single point].

In the case of `CC(C)(C)c1ccc(C(=O)NCC(=O)N/N=C/c2ccccc2OCC(=O)O)cc1`, the cell number change is -38%. In addition, the AC50 under setting [2] is 2.31 µM [falling, partial curve]. Besides, the AC50 under setting [1] was 1.03 µM [falling, partial curve].

Regarding `Cc1ccc(C(=O)Nc2ccc3c(c2)OCO3)cc1S(=O)(=O)N1CCCC1`, under setting [1], the concentration at half-maximal activity (AC50) was 0.259 µM [rising, full curve, poor fit].

Take `CC(=O)N=C1SC2CS(=O)(=O)CC2N1c1cccc(Cl)c1Cl` (stereo unspecified): the cell number change is 32%. Also, the AC50 under setting [2] is 18.4 µM [rising, single point].

In the case of `O=[N+]([O-])c1ccccc1-c1ccc(C(=S)N2CCCC2)o1`, the cell number change was 57.4%. Further, the AC50 under setting [2] is 20.6 µM [rising, single point]. In addition, under setting [1], the AC50 was 16.4 µM [rising, single point].

With `COc1ccccc1CNC(=O)COC(=O)c1sc(C)nc1C`, the cell number change was -7.57%. Also, the AC50 under setting [1] is 20.6 µM [rising, single point].

Regarding `Cc1ccccc1C(=O)N1CCC(C(=O)Oc2ccc(C#N)cc2)CC1`, the cell number change is -7.46%. For the same compound, the AC50 under setting [1] is 0.58 µM [rising, single point].

Regarding `CCOC(=O)C(NC(=O)Nc1ccc(Cl)cn1)(Oc1ccccc1)C(F)(F)F` (stereo unspecified), the cell number change was -42.8%. Also, the AC50 under setting [2] was 4.61 µM [falling, partial curve, poor fit]. Under setting [1], the AC50 was 7.31 µM [falling, partial curve, poor fit].

For `Cc1c(OCC(=O)N2CCN(c3ccccc3)CC2)ccc2c3c(c(=O)oc12)CCCC3`, the cell number change was 11.3%. Besides, the AC50 under setting [1] was 2.31 µM [falling, partial curve].

`CCOC(=O)NC1(C(F)(F)F)C(=O)NC(C)=C1C(=O)OC` (stereo unspecified): the cell number change is -1.8%. Further, the AC50 under setting [1] is 0.206 µM [falling, full curve, poor fit].

With `Cc1ccc(NC(=O)Nc2ccc(F)cc2)nc1`, the cell number change is -19.4%. Further, under setting [1], the AC50 was 0.058 µM [rising, full curve, poor fit].

As for `COc1ccc(-n2cnc3cc(NCc4cccs4)ccc32)cc1`, the cell number change was -32.3%. Moreover, the AC50 under setting [2] is 6.51 µM [falling, partial curve, poor fit]. Moreover, the AC50 under setting [1] is 10.3 µM [falling, partial curve, poor fit].

For the compound `NC(=O)CCS(=O)(=O)CCN1CCCCC1`, the cell number change was -34.6%. For the same compound, the AC50 under setting [2] was 3.66 µM [falling, full curve]. Also, the AC50 under setting [1] is 0.82 µM [falling, full curve].

For the compound `CCN(CC)C(=S)NC(=O)c1ccc(Cl)cc1Cl`, the cell number change is -6.5%. In addition, the AC50 under setting [1] is 6.51 µM [rising, single point].

`COc1ccc(-c2nc3ccccc3o2)cc1OC`: the cell number change was 33.3%. Besides, the AC50 under setting [2] was 29.1 µM [rising, single point]. For the same compound, under setting [1], the AC50 was 0.291 µM [rising, partial curve, poor fit].

In the case of `COc1cc(C(NC(C)=O)NC(C)=O)ccc1OCc1ccccc1`, the cell number change was -25.6%.

Regarding `CCOc1ccc(C(C)=O)cc1CSc1nnc(-c2ccoc2C)n1N`, the cell number change amounted to 26.4%. In addition, under setting [1], the half-maximal activity concentration (AC50) was 0.116 µM [rising, full curve, poor fit].

With `Cc1ccc(C(=O)NCCN2CCNC2=O)cc1`, the cell number change was -12.1%. Further, under setting [1], the AC50 was 0.00517 µM [falling, full curve, poor fit].

On to `CC(C)(CC(=O)O)CC(=O)O`, for which the cell number change was determined as 3.24%. For the same compound, the AC50 under setting [1] is 2.91 µM [rising, full curve].

Regarding `COc1ccc(OC)c(NC(=S)N2c3ccccc3CC2C)c1` (stereo unspecified), the cell number change was -3.78%. Under setting [1], the AC50 is 29.1 µM [falling, single point].

On to `O=C(NCCCO)NC12CC3CC(CC(C3)C1)C2`, for which the cell number change was -16.8%. Besides, under setting [1], the AC50 was 29.1 µM [falling, single point].

For the compound `O=C(Cn1cc(C(=O)c2cccs2)c2ccccc21)NCc1ccc2c(c1)OCO2`, the cell number change stood at 17.5%. In addition, the AC50 under setting [1] was 0.082 µM [falling, full curve, poor fit].

Consider `CSc1nc2nc3c(cc2c(=O)n1-c1ccccc1C)CCCC3`, for which the cell number change is -28.7%.

As for `O=C(CCNS(=O)(=O)c1ccccc1)N1CCCCCCC1`, the cell number change is -38.4%. Besides, under setting [2], the AC50 was 29.1 µM [falling, single point]. For the same compound, under setting [1], the AC50 was 2.59 µM [falling, partial curve].

Consider `N/C(=N\OC(=O)CCc1ccccc1)c1ccc(Cl)cc1`, for which the cell number change is -21.9%. Moreover, the AC50 under setting [1] is 23.1 µM [falling, single point].

On to `Cc1ccc(C(=O)N/N=C\C2CC=CCC2)cc1[N+](=O)[O-]` (stereo unspecified), for which the cell number change was found to be 12.7%.

On to `CCCOc1ccc(C(=O)NCC(C)(C)N2CCOCC2)cc1`, for which the cell number change turned out to be 8.53%.

Regarding `O=C(COC(=O)Cn1cnc2ccccc21)Nc1cccc([N+](=O)[O-])c1`, the cell number change was -55.4%. Further, the AC50 under setting [2] is 8.2 µM [falling, single point]. In addition, the AC50 under setting [1] is 8.2 µM [falling, partial curve].

With `CSc1ccc(CN(C)CC(=O)NC(=O)NCCC2=CCCCC2)cc1`, the cell number change is -26.8%. Also, under setting [1], the AC50 was 16.4 µM [falling, single point].

For `COc1ccc(CCn2c(C)cc(C(=O)COC(=O)c3cnc(C)cn3)c2C)cc1`, the cell number change was found to be 17.2%.

On to `C/C(=N\NC(=S)Nc1c(C)cccc1C)c1ccc(O)cc1`, for which the cell number change is -26%.

For `COc1cccc(NC(=O)CS(=O)(=O)c2cccc3nsnc23)c1`, the cell number change was 2.08%.

Take `C=CCOc1c(Br)cc(/C=N/n2c(CC)n[nH]c2=S)cc1Br`: the AC50 under setting [2] is 2.31 µM [falling, partial curve] and the AC50 under setting [1] was 2.06 µM [falling, partial curve].

`Cc1nnc(SCC(=O)c2c(N)n(Cc3ccccc3)c(=O)n(C)c2=O)n1C`: the cell number change was found to be 4.64%. In addition, the AC50 under setting [2] was 6.51 µM [falling, single point]. Moreover, under setting [1], the AC50 is 6.51 µM [falling, single point].

`Cc1cc(C)n2nc(C(=O)N/N=C/c3cccs3)nc2n1`: the cell number change is -5.18%. Besides, the AC50 under setting [1] is 11.6 µM [falling, partial curve, poor fit].

For the compound `O=C(c1cc(=O)[nH]c2ccccc12)N1CCc2ccccc2C1`, the cell number change was determined as 120%. For the same compound, under setting [1], the AC50 is 7.31 µM [rising, partial curve].

`N#C/C(=C\c1ccc(/C=C(/C#N)c2nn(CCO)c(N)c2C#N)cc1)c1nn(CCO)c(N)c1C#N`: the cell number change is 7.87%. Under setting [1], the AC50 is 2.91 µM [falling, partial curve, poor fit].

Regarding `O=C(N/N=C/c1ccc([N+](=O)[O-])o1)c1sc2ccccc2c1Cl`, the cell number change was -6.69%. Further, the AC50 under setting [1] is 18.4 µM [falling, single point].

For the compound `Cn1cnnc1SC1CCCCC1NS(=O)(=O)c1ccccc1` (stereo unspecified), the cell number change came out at 18.7%.

Take `CCCc1cc2c(=O)n(NC(=O)c3nn(C)cc3[N+](=O)[O-])c(C)nc2s1`: the cell number change was -11.1%. The concentration at half-maximal activity (AC50) under setting [1] was 29.1 µM [falling, single point].

Turning to `O=C(CSc1nnc(-c2cccnc2)n1Cc1ccco1)c1ccc(Br)cc1`, the cell number change came out at 29.1%. For the same compound, the AC50 under setting [2] is 0.291 µM [rising, full curve, poor fit].

In the case of `Cc1cccc(/C=N\Nc2nnc(-c3ccccc3)c(=O)[nH]2)c1`, the cell number change amounted to 36.1%. Besides, under setting [2], the AC50 was 14.6 µM [rising, single point].

`COc1ccc(CC(=O)OCC(=O)NCCNC(=O)COC(=O)Cc2ccc(OC)cc2)cc1`: the cell number change is -11.6%.

With `COc1ccc(S(=O)(=O)NCc2csc(-c3cccnc3)n2)cc1`, the cell number change is 42%. In addition, the AC50 under setting [2] is 0.184 µM [rising, full curve, poor fit]. Besides, under setting [1], the AC50 is 0.164 µM [rising, full curve, poor fit].

Regarding `C(#CCN1CCOCC1)COCCOC(c1ccccc1)c1ccccc1`, the cell number change was 41.6%. Moreover, under setting [2], the AC50 is 29.1 µM [rising, single point].

In the case of `O=C(Nc1ccc(-c2csc(Nc3ccccc3)n2)cc1)c1cccc(C(F)(F)F)c1`, the cell number change is -51%. The AC50 under setting [2] was 29.1 µM [falling, single point]. Under setting [1], the AC50 was 29.1 µM [falling, single point].

On to `CNc1cc(F)nc(F)n1`, for which the cell number change is -9.35%.

`O=C(NCc1ccncc1)c1ccc2nc(Cc3ccccc3F)oc2c1`: the cell number change is -16.4%. For the same compound, under setting [1], the AC50 was 23.1 µM [falling, partial curve].

On to `Oc1[nH]c2ccc(Br)cc2c1N=NC(=S)N1CCOCC1`, for which the cell number change is -49.4%. For the same compound, the AC50 under setting [2] is 11.6 µM [falling, partial curve]. The AC50 under setting [1] was 7.31 µM [falling, partial curve].

On to `CNCCCCOc1ccccc1-c1ccccc1`, for which the half-maximal activity concentration (AC50) under setting [2] is 0.651 µM [rising, partial curve].

For the compound `S=C(NCc1ccc(Cl)cc1)NC12CC3CC(CC(C3)C1)C2`, the cell number change was -24.8%. The AC50 under setting [1] was 25.9 µM [falling, single point].

Regarding `COc1cc2oc(=O)ccc2cc1[C@@H](O)[C@@H]1OC(C)(C)OC1(C)C`, the cell number change worked out at 5.65%. The AC50 under setting [1] is 0.82 µM [rising, partial curve, poor fit].

Regarding `Cc1ccc(C(=O)Nc2ccc(O)cc2C(=O)O)cc1`, the cell number change is -40.7%. Further, under setting [2], the AC50 is 29.1 µM [falling, single point]. The AC50 under setting [1] is 29.1 µM [falling, single point].

For `CCc1c(C2(O)CCCCC2)[nH]c2ccc(C(F)(F)F)cc12`, the cell number change is -40.7%. In addition, the AC50 under setting [2] was 18.4 µM [falling, single point]. The AC50 under setting [1] is 20.6 µM [falling, partial curve].

With `O=C(NCCC(=O)N1CCN(Cc2c(F)cccc2Cl)CC1)c1ccc(Cl)cc1`, the cell number change is -43.3%. Moreover, under setting [2], the AC50 is 29.1 µM [falling, single point].

As for `O=C(NCCc1ccc(F)cc1)c1ccc(S(=O)(=O)N2CCCCC2)cc1`, the AC50 under setting [1] was 4.61 µM [rising, partial curve].

With `Cc1nn(CC(=O)N2CCCC2)c(=O)c2cc3cc(F)ccc3n12`, the cell number change worked out at 58.1%. For the same compound, under setting [2], the AC50 is 23.1 µM [rising, single point]. The AC50 under setting [1] was 16.4 µM [rising, partial curve].

Take `COc1ccc([C@@H](C)NC(=O)c2ccc3oc(C(C)C)nc3c2)cc1`: the cell number change came to 20.9%. Also, the AC50 under setting [1] is 29.1 µM [rising, single point].

As for `FC(F)Oc1ccccc1C1CC(c2ccc(Br)s2)Nc2ncnn21` (stereo unspecified), the cell number change is -11.4%. The AC50 under setting [1] was 29.1 µM [rising, partial curve, poor fit].
